{"sequences": {"note": "Amino acid sequences for entries named in this document (tags omitted).", "UniProt Q9R0C9, whole entry": "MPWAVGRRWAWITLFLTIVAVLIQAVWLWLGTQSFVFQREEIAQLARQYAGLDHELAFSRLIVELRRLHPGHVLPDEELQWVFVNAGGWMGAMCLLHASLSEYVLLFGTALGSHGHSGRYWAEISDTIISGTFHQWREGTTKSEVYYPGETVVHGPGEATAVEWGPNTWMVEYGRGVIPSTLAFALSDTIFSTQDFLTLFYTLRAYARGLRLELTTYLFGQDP"}, "source": "patent US20240315989A1", "about": "(priority 2021, published 2024)", "origin": "cited, not measured here", "biological_target": "sigma-1 receptors (Rattus norvegicus, UniProt Q9R0C9)", "conditions": "cited from earlier work", "note": "pKi: −log10 of the molar value."}
{"molecule": "CN[C@H]1CC[C@@H](c2ccc(Cl)c(Cl)c2)c2ccccc21", "note": "[sertraline]", "values": [{"measurement": "pKi", "value": 7.50}]}
